Source: PubChem BioAssay AID222 (DTP/NCI, 2004)
The list is a part of this screen's results and no random one: it is rich in T/C values a quarter to a half above the control, in often repeated tests (any T/C) and in doses without a T/C. Other doses and runs of a compound stand elsewhere. T/C gives the treated animals as a percentage of the vehicle group. Some entries give survivors of the animals treated and no T/C: the source files T/C as zero there, which appears to mark a toxic dose or a test without result, not a measured value. Some doses without a T/C left all or most animals alive at the check, yet need not have been tolerated: the source hardly ever lists a survival T/C far under the control, and the zero likely stands for such cases as well. Survivors were counted at the toxicity check, usually on the fifth day, unless a day is given; later deaths do not show. Schedules are NCI's codes, read here as Q, the interval in days (D) or hours (H), X, the number of doses. Some entries were tested several times; the results are listed from low to high. Some schedule codes hold Z or #, which are not explained here. Where survival is the endpoint, the PubChem record calls one and a half times the control and up active, and a quarter to a half above the control has no call in these data; cut-offs in other NCI protocols can differ. Some T/C values carry the count of animals alive at the toxicity check (mostly the fifth day); where none is given, no animal had died by that day. Marks such as (2×) say how often a value occurs here.

Tested on: C57BL/6 mice, intracerebral ependymoblastoma, median survival T/C
Experiment: NCI In Vivo Anticancer Drug Screen. Data for tumor model Ependymoblastoma (intracerebral) in C57BL/6 mice
Conditions: T/C endpoint: median survival time, higher T/C = longer survival
Experimental: The antitumor activity of compounds was measured in mice bearing transplantable tumors. Survival or tumor size were measured and the results are expressed as the measurement made in the treated group (T) divided by the measurement made in the vehicle treated control group (C). The tumor model used in this assay is Ependymoblastoma (intracerebral) in C57BL/6 mice

[1] = dose: 128.0 mg/kg/injection, schedule: Q01DX001 (ip), vehicle: saline
[2] = dose: 128.0 mg/kg/injection, schedule: Q01DX001 (oral), vehicle: saline
[3] = dose: 256.0 mg/kg/injection, schedule: Q01DX001 (ip), vehicle: saline
[4] = dose: 256.0 mg/kg/injection, schedule: Q01DX001 (oral), vehicle: saline
[5] = dose: 512.0 mg/kg/injection, schedule: Q01DX001 (oral), vehicle: saline

OC(CBr)C(O)C(O)C(O)CBr (configuration not stated)
survivor count (dose: 40.0 mg/kg/injection, schedule: Q01DX005 (ip), vehicle: saline): 8 of 8
T/C (dose: 100.0 mg/kg/injection, schedule: Q01DX005 (ip), vehicle: Klucel (hydroxypropylcellulose) (HPC), evaluated on day 60): 98, 110, 114, 119, 128, 146 % of control
T/C (dose: 100.0 mg/kg/injection, schedule: Q01DX005 (ip), vehicle: Klucel (hydroxypropylcellulose) (HPC), evaluated on day 90): 98 % of control [2 of 10 alive]
survivor count (dose: 100.0 mg/kg/injection, schedule: Q01DX005 (ip), vehicle: Klucel (hydroxypropylcellulose) (HPC)): 0 of 10 and 10 of 10
T/C (dose: 100.0 mg/kg/injection, schedule: Q01DX005 (ip), vehicle: saline): 137 % of control
T/C (dose: 128.0 mg/kg/injection, schedule: Q01DX005 (oral), vehicle: Klucel (hydroxypropylcellulose) (HPC)): 132 % of control
survivor count (dose: 194.0 mg/kg/injection, schedule: Q01DX005 (ip), vehicle: saline with Tween-80): 8 of 8
T/C (dose: 200.0 mg/kg/injection, schedule: Q01DX005 (ip), vehicle: Klucel (hydroxypropylcellulose) (HPC), evaluated on day 60): 89, 107, 118, 119 [9 of 10 alive], 121, 231 % of control
T/C (dose: 200.0 mg/kg/injection, schedule: Q01DX005 (ip), vehicle: Klucel (hydroxypropylcellulose) (HPC), evaluated on day 90): 109 % of control [6 of 10 alive]
survivor count (dose: 200.0 mg/kg/injection, schedule: Q01DX005 (ip), vehicle: Klucel (hydroxypropylcellulose) (HPC)): 0 of 10 and 7 of 10
survivor count (dose: 200.0 mg/kg/injection, schedule: Q01DX005 (ip), vehicle: saline): 10 of 10
T/C (dose: 256.0 mg/kg/injection, schedule: Q01DX005 (oral), vehicle: Klucel (hydroxypropylcellulose) (HPC)): 138 % of control
survivor count (dose: 324.0 mg/kg/injection, schedule: Q01DX005 (ip), vehicle: saline with Tween-80): 7 of 8
survivor count (dose: 400.0 mg/kg/injection, schedule: Q01DX005 (ip), vehicle: saline): 10 of 10
survivor count (dose: 512.0 mg/kg/injection, schedule: Q01DX005 (oral), vehicle: Klucel (hydroxypropylcellulose) (HPC)): 10 of 10
survivor count (dose: 540.0 mg/kg/injection, schedule: Q01DX005 (ip), vehicle: saline with Tween-80): 8 of 8
survivor count (dose: 900.0 mg/kg/injection, schedule: Q01DX005 (ip), vehicle: saline with Tween-80): 8 of 8
survivor count (dose: 1024.0 mg/kg/injection, schedule: Q01DX005 (oral), vehicle: Klucel (hydroxypropylcellulose) (HPC)): 10 of 10
survivor count (dose: 1350.0 mg/kg/injection, schedule: Q01DX005 (ip), vehicle: saline with Tween-80): 7 of 8
survivor count (dose: 2020.0 mg/kg/injection, schedule: Q01DX005 (ip), vehicle: saline with Tween-80): 6 of 8

Nc1nc([Se])c2ncn(C3OC(CO)C(O)C3O)c2n1 (configuration not stated)
T/C (dose: 8.0 mg/kg/injection, schedule: Q01DX005 (ip), vehicle: Klucel (hydroxypropylcellulose) (HPC)): 102, 105 (2×), 108, 109 % of control
survivor count (dose: 16.0 mg/kg/injection, schedule: Q01DX005 (ip), vehicle: Klucel (hydroxypropylcellulose) (HPC)): 10 of 10
survivor count (dose: 32.0 mg/kg/injection, schedule: Q01DX005 (ip), vehicle: Klucel (hydroxypropylcellulose) (HPC)): 9 of 10 and 10 of 10
survivor count (dose: 32.0 mg/kg/injection, schedule: Q01DX005 (ip), vehicle: saline with Tween-80): 7 of 10
survivor count (dose: 32.0 mg/kg/injection, schedule: Q01DX005 (ip), vehicle: saline): 10 of 10
T/C (dose: 64.0 mg/kg/injection, schedule: Q01DX001 (ip), vehicle: saline): 95 [9 of 10 alive], 100, 105 [6 of 7 alive], 106 [6 of 10 alive], 108 % of control
survivor count (dose: 64.0 mg/kg/injection, schedule: Q01DX005 (ip), vehicle: Klucel (hydroxypropylcellulose) (HPC)): 9 of 10
survivor count (dose: 64.0 mg/kg/injection, schedule: Q01DX005 (ip), vehicle: saline with Tween-80): 6 of 10
survivor count (dose: 64.0 mg/kg/injection, schedule: Q01DX005 (ip), vehicle: saline): 9 of 10 and 10 of 10
survivor count (dose: 111.4 mg/kg/injection, schedule: Q## X006 (ip), vehicle: saline): 7 of 10
T/C [1]: 94 [5 of 10 alive], 99 [8 of 10 alive], 104 % of control [5 of 10 alive]
survivor count [1]: 4 of 10
T/C [2]: 96, 98 [3 of 10 alive], 98 [6 of 10 alive], 106 % of control
survivor count [2]: 8 of 10
survivor count (dose: 128.0 mg/kg/injection, schedule: Q01DX005 (ip), vehicle: Klucel (hydroxypropylcellulose) (HPC)): 0 of 10
survivor count (dose: 128.0 mg/kg/injection, schedule: Q01DX005 (ip), vehicle: saline): 0 of 10
survivor count (dose: 128.0 mg/kg/injection, schedule: Q01DX005 (oral), vehicle: saline): 4 of 10
survivor count (dose: 128.0 mg/kg/injection, schedule: Q#A X002 (ip), vehicle: saline): 0 of 10
survivor count (dose: 222.7 mg/kg/injection, schedule: Q## X006 (ip), vehicle: saline): 3 of 10
T/C [3]: 95 % of control [3 of 10 alive]
survivor count [3]: 1 of 10, 2 of 10, 3 of 10
T/C [4]: 90 [2 of 10 alive] and 104 % of control [7 of 10 alive]
survivor count [4]: 3 of 10, 5 of 10, 7 of 10
survivor count (dose: 256.0 mg/kg/injection, schedule: Q01DX005 (oral), vehicle: saline): 0 of 10
survivor count (dose: 256.0 mg/kg/injection, schedule: Q#A X002 (ip), vehicle: saline): 0 of 10 and 0 of 9
survivor count (dose: 512.0 mg/kg/injection, schedule: Q01DX001 (ip), vehicle: saline): 0 of 10 and 1 of 10
T/C [5]: 106 % of control [6 of 9 alive]
survivor count [5]: 0 of 10, 1 of 10, 2 of 10
survivor count (dose: 512.0 mg/kg/injection, schedule: Q01DX005 (oral), vehicle: saline): 0 of 10
survivor count (dose: 1024.0 mg/kg/injection, schedule: Q01DX001 (oral), vehicle: saline): 0 of 10 and 3 of 9
survivor count (dose: 1024.0 mg/kg/injection, schedule: Q01DX005 (oral), vehicle: saline): 0 of 10

CC[C@]1(O)C[C@H]2CN(CCc3c([nH]c4ccccc34)[C@@](C(=O)OC)(c3cc4c(cc3OC)N(C=O)[C@H]3[C@@](O)(C(=O)OC)[C@H](OC(C)=O)[C@]5(CC)C=CCN6CC[C@]43[C@@H]65)C2)C1
survivor count (dose: 0.8 mg/kg/injection, schedule: Q01DX005 (ip), vehicle: saline): 3 of 6
survivor count (dose: 1.6 mg/kg/injection, schedule: Q01DX005 (ip), vehicle: saline): 6 of 6
survivor count (dose: 3.2 mg/kg/injection, schedule: Q01DX005 (ip), vehicle: saline): 3 of 6
survivor count (dose: 6.4 mg/kg/injection, schedule: Q01DX005 (ip), vehicle: saline): 0 of 6
survivor count (dose: 12.8 mg/kg/injection, schedule: Q01DX005 (ip), vehicle: saline): 0 of 6

NC(=O)N(CCCl)N=O
T/C (dose: 1.0 mg/kg/injection, schedule: Q01DX005 (ip), vehicle: saline + alcohol): 144 % of control
survivor count (dose: 4.0 mg/kg/injection, schedule: Q01DX005 (ip), vehicle: saline + alcohol): 10 of 10
survivor count (dose: 8.0 mg/kg/injection, schedule: Q01DX005 (ip), vehicle: saline + alcohol): 10 of 10
survivor count (dose: 16.0 mg/kg/injection, schedule: Q01DX005 (ip), vehicle: saline + alcohol): 5 of 10

c1cc2n(n1)CCN2
survivor count (dose: 256.0 mg/kg/injection, schedule: Q01DX005 (ip), vehicle: saline): 5 of 10
survivor count (dose: 512.0 mg/kg/injection, schedule: Q01DX005 (ip), vehicle: saline): 3 of 10
